Reference: patent publication US20200121645A1, “COMPOSITION FOR PREVENTING OR TREATING EGFR-MUTANT NON-SMALL CELL LUNG CANCER” (THE ASAN FOUNDATION, priority 2018, published 2020)
For at least one compound, name, drawing or mass did not settle the structure.

Legend:
EGFR = EGFR transcriptional level; assay type: cell-based
Experimental: Total RNA was extracted using TRIzol (Invitrogen, Carlsbad, Calif., USA). cDNA was synthesized from 2 μg of total RNA, using oligo-dT and MMLV HP reverse transcriptase (Epicentre, Madison, Wis., USA) according to the manufacturer's instruction. qRT-PCR was performed on an AriaMax Real-Time PCR instrument (Agilent Technologies, Santa Clara, Calif., USA) using the SYBR detection protocol. cDNA was calculated by the comparative Ct method, with 18S ribosomal RNA as a control. PCR reactions were performed in triplicates.

[1] = system: PC-9/GR and PC-9/ER cells; assay: Western blot of JNK, EGFR signaling and apoptosis markers in EGFR-TKI-resistant cells; assay type: cell-based; settings: 24 h
Experimental: (§1) Cells were lysed in RIPA lysis buffer containing protease inhibitor cocktail (Thermo Scientific, Waltham, Mass., USA); lysate concentrations were assayed using a BCA assay (Thermo Scientific). Equal amounts of lysates were mixed with Laemmli loading dye and boiled for 10 minutes. Lysates were subjected to SDS-PAGE, and separated proteins were transferred to PVDF membranes (EMD Millipore, Billerica, Mass., USA). Membranes were blocked in Tris-buffered saline (TBS) containing 5% nonfat dry milk and 0.1% Tween 20 (TBS-T) prior to overnight incubation with primary antibody at 4° C. After washing with TBS-T, blots were exposed to appropriate horseradish peroxidase-conjugated secondary antibodies for 1 hour. Proteins-antibody complexes were visualized on Kodak X-ray film using an enhanced chemiluminescence (ECL) detection system (Thermo Scientific, Waltham, Mass., USA).

[2] = system: EGFR-WT NSCLCs (A549 and H1299); assay: Apoptotic cell death by Annexin V/PI staining and flow cytometry; assay type: cell-based; settings: 24 h treatment
Experimental: (§2) Apoptotic cell death was detected using an Annexin-V/FITC assay. Cells were harvested by trypsinization, washed with PBS, and resuspended in Annexin-V binding buffer (10 mM HEPES, pH 7.4, 140 mM NaCl, 2.5 mM CaCl2) containing Annexin-V FITC and propidium iodide. Stained cells were quantified and analyzed on a flow cytometer (BeckmanCoulter, Brea, Calif., USA).

[3] = system: EGFR-mutant NSCLCs (PC9 and H1975); assay: as above; assay type: cell-based; settings: 24 h treatment
Experimental: as §2

EGFR-mutant NSCLCs = assay: Autophagy: LC3-II immunoblot and GFP-LC3 puncta; assay type: cell-based; settings: 2DG 10 mM or anisomycin 5 μM, 24 h
Experimental: as §1

[4] = system: PC-9/GR and PC-9/ER cells; assay: Apoptotic cell death by Annexin V/PI staining and flow cytometry in EGFR-TKI-resistant cells; assay type: cell-based; settings: PC-9/GR and PC-9/ER cells (T790M), 24 h
Experimental: as §2

[5] = system: PC9 and H1975 tumor cell xenografts; assay: Western blotting of xenograft tumors for EGFR-related signaling molecules and JNK; assay type: in vivo, SCID mice; settings: anisomycin for 3 days
[6] = system: JNK in EGFR-mutant NSCLCs; assay: Western blot for JNK and P-JNK; assay type: cell-based; settings: immunoblot
Experimental: as §1

[7] = system: PC9 and H1975 tumor cell xenografts; assay: Xenograft studies, tumor volume; assay type: in vivo, SCID mice; settings: anisomycin 5 mg/kg, intratumoral, 5 days a week for 2 weeks
Experimental: Female severe combined immunodeficiency (SCID) mice were purchased from Charles River Laboratories. All experimental procedures were approved by the Institutional Animal Care and Use Committee of Asan Institute for Life Sciences (protocol 2015-14-241). For each animal, 2×10^6 cells mixed with Matrigel (BD Biosciences) were injected into the flank. Five mice per group were treated when the tumor volumes reached 50 to 100 mm^3 with anisomycin (5 mg/kg, intratumoral, 5 days a week) or 2-deoxy-D-glucose (2DG) 500 mg/kg, intraperitoneal, 5 days a week) for 2 weeks. The length (L) and width (W) of each tumor were measured using calipers, and the tumor volume (TV) was calculated as TV=(L×W^2)/2. To evaluate EGFR-related signaling in xenograft tumors, tumors were harvested after 3 days of drug treatment, lysed, and analyzed with Western blotting.

[8] = system: EGFR in EGFR-mutant NSCLCs; assay: Western blot of EGFR levels, EGFR signaling and PARP/caspase-3 cleavage; assay type: cell-based
Experimental: as §1

SMILES: COc1ccc(C[C@H]2NC[C@H](O)[C@H]2OC(C)=O)cc1 [anisomycin, (2S,3S,4S)-4-hydroxy-[(4-methoxyphenyl)methyl]-pyrrolidin-3-yl-acetate]
- EGFR transcriptional level (EGFR): no significant effect
- EGFR level, AKT and ERK phosphorylation, PARP and caspase-3 cleavage [1]: also observed
- apoptotic cell death [2]: did not trigger apoptotic cell death
- apoptotic cell death [3]: significant induction of apoptosis
- LC3-II levels (EGFR-mutant NSCLCs): significant increase in LC3-II levels
- number of GFP-LC3 puncta (EGFR-mutant NSCLCs; PC9 cells expressing GFP-LC3): profoundly increased
- apoptosis [4]: significantly induced apoptosis in a dose-dependent manner
- EGFR levels in xenograft tumors [5]: decreased EGFR levels
- EGFR signaling pathway in xenograft tumors [5]: inhibits the EGFR signaling pathway
- apoptosis via JNK activation in xenograft tumors [5]: activates apoptosis
- JNK activation (P-JNK) [6]: anisomycin-induced JNK activation
- tumor growth of xenografts [7]: robustly diminished growth
- EGFR levels ([8]; EGFR-mutant NSCLCs, immunoblot): significantly reduced EGFR levels
- EGFR signaling (AKT and ERK phosphorylation) ([8]; EGFR-mutant NSCLCs, immunoblot): inhibited AKT and ERK phosphorylation
- PARP and caspase-3 cleavage (apoptosis markers) ([8]; EGFR-mutant NSCLCs, immunoblot): led to PARP and caspase-3 cleavage in a dose-dependent manner
- EGFR levels upon ATG7 knockdown ([8]; cells expressing ATG7 shRNAs, 2DG 10 mM or anisomycin 5 μM, 24 h): did not reduce EGFR levels
